The target of the test is SIN1 (endogenous, HEK293 cells) (human) (UniProt Q9BPZ7). Kind of test: immunoprecipitation of endogenous RhoA with anti-RhoA antibodies from HEK293 cells, Western blot (FIG. 1D; unaffected in K-Ras-KO cells, FIG. 1E). On the technique in general: A western blot detects proteins with antibodies after separation by electrophoresis.

Chains of the proteins cited; added tags and fusions are not shown. Residues count along the entry.
UniProt Q9BPZ7, residues 2-522: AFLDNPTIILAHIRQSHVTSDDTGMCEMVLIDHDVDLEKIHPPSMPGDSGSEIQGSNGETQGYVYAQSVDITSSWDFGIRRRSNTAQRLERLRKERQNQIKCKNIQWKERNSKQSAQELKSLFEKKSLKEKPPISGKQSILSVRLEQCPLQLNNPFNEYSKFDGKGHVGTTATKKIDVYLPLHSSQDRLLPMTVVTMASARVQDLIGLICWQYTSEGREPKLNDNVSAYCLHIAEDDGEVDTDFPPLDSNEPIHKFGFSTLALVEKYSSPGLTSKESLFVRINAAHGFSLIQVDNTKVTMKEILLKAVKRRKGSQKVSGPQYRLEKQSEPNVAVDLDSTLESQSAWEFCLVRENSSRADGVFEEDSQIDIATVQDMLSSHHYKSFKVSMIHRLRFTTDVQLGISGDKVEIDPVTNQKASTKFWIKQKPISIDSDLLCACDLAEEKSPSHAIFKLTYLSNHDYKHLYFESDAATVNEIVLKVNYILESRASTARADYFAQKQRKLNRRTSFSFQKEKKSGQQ
UniProt P61586, residues 1-190: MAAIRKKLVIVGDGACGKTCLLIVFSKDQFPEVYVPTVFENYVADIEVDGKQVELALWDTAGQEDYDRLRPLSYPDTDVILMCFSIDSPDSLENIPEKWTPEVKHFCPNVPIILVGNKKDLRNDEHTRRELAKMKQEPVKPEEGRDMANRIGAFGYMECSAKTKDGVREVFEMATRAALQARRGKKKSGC

This passage reports binding results from patent US20240294587A1, “K-RAS INHIBITOR” (THE JOHNS HOPKINS UNIVERSITY, priority 2021, published 2024).

These are yes or no findings as the source states them, for the method shown. Some entries that bind do so weakly or less than the wild type.

Regarding “RhoA (endogenous, HEK293 cells) (from UniProt P61586 1-190)”, the binding result is reported as “binds”.
